We go through two molecules from article PMC8733394.

No constants are given. Whether binding was seen depends on the method and setting. For some of these results: In cells and extracts the contact can be indirect. Some entries that bind do so weakly or less than the wild type. Sequences can lack the tags named with a protein.

For assay [1], the target named is T1, tu1 II-BD (TSN1 C-terminal fragment, 721-970 amino acids) (Arabidopsis thaliana) (UniProt Q8VZG7).
T1 sequence: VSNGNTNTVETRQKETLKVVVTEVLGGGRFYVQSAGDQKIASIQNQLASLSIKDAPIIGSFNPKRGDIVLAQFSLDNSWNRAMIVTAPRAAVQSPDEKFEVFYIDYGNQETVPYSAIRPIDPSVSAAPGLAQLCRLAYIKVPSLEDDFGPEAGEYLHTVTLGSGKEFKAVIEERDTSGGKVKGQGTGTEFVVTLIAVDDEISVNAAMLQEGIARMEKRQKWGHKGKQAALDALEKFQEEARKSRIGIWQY
As to the kind of experiment: two-hybrid; yeast AH109; RH31 in pGADT-7 (AD), TSN1 fragments in pGBKT-7 (BD); 30 C; growth on selective medium SD/-L-T-A.

The target of assay [2] is T2, tu1 I-2-BD (TSN1 fragment, 381-720 amino acids) (Arabidopsis thaliana) (UniProt Q8VZG7).
T2 sequence: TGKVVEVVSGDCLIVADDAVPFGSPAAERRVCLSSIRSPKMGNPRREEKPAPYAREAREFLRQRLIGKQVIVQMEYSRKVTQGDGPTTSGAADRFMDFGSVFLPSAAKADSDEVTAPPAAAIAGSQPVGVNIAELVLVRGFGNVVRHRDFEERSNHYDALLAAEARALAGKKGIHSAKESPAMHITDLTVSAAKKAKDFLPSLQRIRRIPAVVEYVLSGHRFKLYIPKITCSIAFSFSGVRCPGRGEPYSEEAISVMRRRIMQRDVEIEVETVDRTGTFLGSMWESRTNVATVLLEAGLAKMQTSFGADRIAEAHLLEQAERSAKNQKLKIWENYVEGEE
The assay is described as above.

In assay [3] the target is T3, tu1 I-1-BD (TSN1 fragment, 1-380 amino acids) (Arabidopsis thaliana) (UniProt Q8VZG7).
T3 sequence: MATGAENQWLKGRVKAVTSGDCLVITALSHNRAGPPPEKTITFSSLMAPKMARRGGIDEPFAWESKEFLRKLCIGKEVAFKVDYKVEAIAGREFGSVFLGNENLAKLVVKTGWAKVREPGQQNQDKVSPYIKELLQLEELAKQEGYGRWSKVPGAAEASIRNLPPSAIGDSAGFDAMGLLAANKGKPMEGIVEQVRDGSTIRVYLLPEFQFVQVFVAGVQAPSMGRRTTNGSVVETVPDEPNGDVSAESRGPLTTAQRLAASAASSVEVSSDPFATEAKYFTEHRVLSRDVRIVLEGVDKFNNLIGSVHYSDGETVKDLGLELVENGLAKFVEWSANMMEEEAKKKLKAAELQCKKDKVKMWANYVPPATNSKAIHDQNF
The assay is described as above.

The target in assay [4] is T4, TSN1-NLuc (Arabidopsis thaliana) (UniProt Q8VZG7).
T4 sequence: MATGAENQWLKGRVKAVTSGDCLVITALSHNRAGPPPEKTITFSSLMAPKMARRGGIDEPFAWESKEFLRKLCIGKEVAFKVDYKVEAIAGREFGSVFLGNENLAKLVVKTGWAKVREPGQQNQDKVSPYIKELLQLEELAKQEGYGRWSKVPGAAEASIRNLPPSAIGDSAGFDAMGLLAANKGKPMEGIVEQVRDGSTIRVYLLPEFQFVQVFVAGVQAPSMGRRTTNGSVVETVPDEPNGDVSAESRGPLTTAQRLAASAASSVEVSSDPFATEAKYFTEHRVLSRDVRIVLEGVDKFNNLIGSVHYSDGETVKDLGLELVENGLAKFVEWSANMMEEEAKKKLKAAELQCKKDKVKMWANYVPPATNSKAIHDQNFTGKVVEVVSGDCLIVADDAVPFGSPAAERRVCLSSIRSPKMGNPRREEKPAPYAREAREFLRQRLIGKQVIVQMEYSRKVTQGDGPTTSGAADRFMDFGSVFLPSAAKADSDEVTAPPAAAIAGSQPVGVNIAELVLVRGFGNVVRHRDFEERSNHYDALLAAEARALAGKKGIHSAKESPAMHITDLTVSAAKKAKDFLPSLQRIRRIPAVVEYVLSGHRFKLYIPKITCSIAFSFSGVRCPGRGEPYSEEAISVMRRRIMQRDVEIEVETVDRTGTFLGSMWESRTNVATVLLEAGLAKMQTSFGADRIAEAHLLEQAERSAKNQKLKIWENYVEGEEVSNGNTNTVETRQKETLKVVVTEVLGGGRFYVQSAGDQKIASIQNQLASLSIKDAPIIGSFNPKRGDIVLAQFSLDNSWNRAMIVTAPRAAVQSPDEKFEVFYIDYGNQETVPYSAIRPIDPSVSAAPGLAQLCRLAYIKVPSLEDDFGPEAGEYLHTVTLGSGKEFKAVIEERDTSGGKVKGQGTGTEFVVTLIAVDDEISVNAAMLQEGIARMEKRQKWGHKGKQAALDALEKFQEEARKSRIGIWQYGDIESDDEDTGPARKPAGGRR
As to the kind of experiment: split reporter; firefly luciferase complementation imaging (LCI); CLuc-RH31, TSN1-NLuc and P19 co-infiltrated by Agrobacterium GV3101 into N. benthamiana leaves, 23 C for 3 days, CCD imaging of LUC activity.

B1: RH31-AD (protein, UniProt Q9FFQ1 1-716)
chain: MPLNFPLRIRFFAHSLSGTHLSYNTSSSVPLLFRIFSSGLNHFEFGSRINFSTRPNRDQPEFERRIRDGGEIRASKSLIEDEEELSNWVSGFRTGSSRGILKSDDEDEEDRSRGRNQEKRGIRNQVDSFRNKRYGGDRERGFNSRIQGKSSEASFRGRKETSFSRDREDEKGLRKREDLRLEDESSDEDVKSLVMGDIGDLLSEDDEEEDQDYDFLKKKAVSAFGFDKENVIEADKTRNANDSYLTKTRFDHYPLSPLSLKAIKDAGYETMTVVQEATLPIILKGKDVLAKAKTGTGKTVAFLLPSIEVVVKSPPTSPDNKRPPILALVICPTRELANQAATEANTLLKYHPSIGVQVVIGGTRLGLEQKRMQTNPCQILVATPGRLKDHIENTPGFATRLKGVKVLVLDEADHLLDMGFRKDIERIISAVPKERQTFLFSATVPEEVRQICLVALRRDHEFVNCVHEGTIETHQQVRQMHMIASLDRHFSLLYTLLREHIMGNVDYKVIVFCTTAMVTKLVADLLGELNLNVREIHSRKPQSYRTRVSNEFRKSKGLILVTSDVSARGVDYPDVTLVLQVGLPKDREQYIHRLGRTGRKGKEGEGILLLAPWEEYFLSSLKDLPITKSPLPSIDPETVKKVQKALCHVEMRNKEAAYQAWLGYYNSQKMIGRDKDRLVELANEFSRSMGLDNPPAIPKLILGKMGLKNVPGLRAK
As for B1, the binding result in assay [1] is on record as “binds”; in assay [2] it was “no binding”; in assay [3] it was “no binding”.

B2: CLuc-RH31 (protein, UniProt Q9FFQ1 1-716)
chain: B1 chain
Consider B2, for which the binding entry in assay [4] is “binds”.
